The list shows a part of the results.

The target of this assay is T1, OsSMF1 (Oryza sativa, UniProt Q6ZLB0 1-436).
T1 sequence: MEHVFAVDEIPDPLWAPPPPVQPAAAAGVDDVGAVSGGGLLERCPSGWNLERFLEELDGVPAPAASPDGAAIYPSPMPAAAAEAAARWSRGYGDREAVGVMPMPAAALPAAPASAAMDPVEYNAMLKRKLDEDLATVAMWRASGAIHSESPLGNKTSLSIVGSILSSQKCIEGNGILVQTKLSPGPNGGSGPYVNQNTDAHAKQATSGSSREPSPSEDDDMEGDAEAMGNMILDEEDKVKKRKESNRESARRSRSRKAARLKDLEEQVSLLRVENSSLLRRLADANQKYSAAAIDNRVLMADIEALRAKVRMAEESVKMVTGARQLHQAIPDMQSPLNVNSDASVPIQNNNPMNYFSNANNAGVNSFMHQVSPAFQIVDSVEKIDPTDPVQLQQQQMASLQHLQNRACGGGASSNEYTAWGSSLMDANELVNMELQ
Kind of assay: protein-binding microarray (RPBM); PBS, 2% BSA, 51.3 ng/ul salmon testes DNA, 50 uM zinc acetate, 200 nM TF, 25 C, 1 h; high values mean tight binding. Particulars: protein: recombinant; tags: N-terminal polyhistidine and DsRed monomer fusion (pET32a); chain copies: 2; label: CyDye5-dUTP incorporated in the synthesized complementary strand; 3' TTTTT single-stranded linker to array surface; dsDNA, one strand shown. Put shortly:
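Transcription factors, each fused N-terminally to a polyhistidine tag and DsRed, were expressed in E. coli BL21-CodonPlus and purified on Ni–NTA. A custom Agilent array was made double-stranded by primer extension with Cy5-dUTP and blocked with 2% BSA. It was incubated with 200 nM protein in PBS, 2% BSA, salmon testes DNA and 50 µM zinc acetate at 25 °C for 1 h, then washed. The binding signal is per-feature fluorescence intensity (arbitrary units) read on an Axon 4000B scanner.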
In the case of “CTCCTCTCCTCCCTCCTCGACTTCTCCGCTTTCTCCGCCTCGGAGTCACCTAGTGCAG”, the binding signal was 3230 fluorescence intensity (a.u.).

On to “CAGGTTTGCTGTACACTTGTCGCGCCTTGAGGACGCAGTTCGGAGTCACCTAGTGCAG”, for which the binding signal is 3310 fluorescence intensity (a.u.).

Consider “TTTCTACACACATAAACTTTCAACTTTTCCATCACATCGTCGGAGTCACCTAGTGCAG”, for which the binding signal was 9580 fluorescence intensity (a.u.).

Regarding “TTTAAAGTATTAAATATAGACTAATAATAAAATAAATTGCCGGAGTCACCTAGTGCAG”, the binding signal is 16600 fluorescence intensity (a.u.).

As for “GCCCCAGCATCGTCCGCCCCGCCGTCGCCACTGCACCAGCCGGAGTCACCTAGTGCAG”, the binding signal is 3150 fluorescence intensity (a.u.).

Take “CTATATTAATTAATGAATTAGCAATTGGATGTACCAATTTCGGAGTCACCTAGTGCAG”: the binding signal is 41000 fluorescence intensity (a.u.).

As to “AGCAGCGGGCTACAGATTTATAGCCAGCTGTAGCACGGATCGGAGTCACCTAGTGCAG”, the binding signal was 33200 fluorescence intensity (a.u.).

Take “GGGAGGAAGAGGAATGAGCTATCTGTCAGCAGAGAACCTTCGGAGTCACCTAGTGCAG”: the binding signal was 3540 fluorescence intensity (a.u.).

Turning to “AATAGATTTTGAAGAGATGTGACACGTTACAGTACTACGACGGAGTCACCTAGTGCAG”, the binding signal was 4980 fluorescence intensity (a.u.).

Take “TGGCGTGACCAGATTGATGACATACTGGCCAAGATATGGTCGGAGTCACCTAGTGCAG”: the binding signal was 3740 fluorescence intensity (a.u.).

For “AAATTAAATTGTTGACCGAAACCTAAGCTGGCATTTAATACGGAGTCACCTAGTGCAG”, the binding signal was 3820 fluorescence intensity (a.u.).

Turning to “TTTTACTTTCAATAATTGCCATGACACCTACACCCGGAGGCGGAGTCACCTAGTGCAG”, the binding signal is 3860 fluorescence intensity (a.u.).

In the case of “CATGATTTATTTGATAAGCTAGGGGCGCCACGTGGCCCAACGGAGTCACCTAGTGCAG”, the binding signal is 19100 fluorescence intensity (a.u.).

Regarding “CGGCTGATCAGAGTGACGTCATTGGTGTTGGTGGTATTGACGGAGTCACCTAGTGCAG”, the binding signal is 11400 fluorescence intensity (a.u.).

With “TTAATTTCTCTGCACACTCAAAACAGGGAGACACGTCAAACGGAGTCACCTAGTGCAG”, the binding signal was 3980 fluorescence intensity (a.u.).

For the sequence “TGGACGTCGTGTGCTCGTGCAAACACACGTGGTCGCCAGCCGGAGTCACCTAGTGCAG”, the binding signal was 7750 fluorescence intensity (a.u.).

For “TGACGTGTCATTGACATGGTGCTTACGTGGCAATTCGAAACGGAGTCACCTAGTGCAG”, the binding signal was 30200 fluorescence intensity (a.u.).

Turning to “GCCTGGCTCATCGGTTACCCTTTCTCACCGACTGTACTACCGGAGTCACCTAGTGCAG”, the binding signal was 3170 fluorescence intensity (a.u.).

With “TCGCGCTCTCGCCGCCGCCCGTGCCCAGCAACCGCGCGTCCGGAGTCACCTAGTGCAG”, the binding signal is 10400 fluorescence intensity (a.u.).

Consider “GGCTGGTCCACGTGAGCCGCATGCGCCACGTATCACGCGACGGAGTCACCTAGTGCAG”, for which the binding signal is 5940 fluorescence intensity (a.u.).

Turning to “CATCATCGAGACGAAGCAGCGGGCGCTGCTGGTGACGTCGCGGAGTCACCTAGTGCAG”, the binding signal is 4350 fluorescence intensity (a.u.).

For the sequence “GCAAACTAGCTTCTAGCTTCTTCTTCTTGTCCTCCAAGCTCGGAGTCACCTAGTGCAG”, the binding signal is 35000 fluorescence intensity (a.u.).

As for “ATATGTGTGTTTGACACGTGGAGCAGAGCAGAGGAGTTTGCGGAGTCACCTAGTGCAG”, the binding signal is 9620 fluorescence intensity (a.u.).

In the case of “GTGCCATCTTATTATTTATAATTTATAGTACCACCTTATTCGGAGTCACCTAGTGCAG”, the binding signal was 3960 fluorescence intensity (a.u.).

For the sequence “AAAATCTGTGGCGTGACTCGACTCGAGGACGTTGTCTGCACGGAGTCACCTAGTGCAG”, the binding signal is 3840 fluorescence intensity (a.u.).

On to “GGAGCGGCGCGCAGGAGAGGATCTACGGGCGGCGCCTGCTCGGAGTCACCTAGTGCAG”, for which the binding signal was 14700 fluorescence intensity (a.u.).

For the sequence “GCGGGAAAGGAAGGCTGATCGCTTAATTAGCCGCTTCAGTCGGAGTCACCTAGTGCAG”, the binding signal is 28500 fluorescence intensity (a.u.).

For the sequence “CGTCAATGTATGTTCTGGAGCTAACATAGCTCAATCATTGCGGAGTCACCTAGTGCAG”, the binding signal is 5030 fluorescence intensity (a.u.).

Turning to “ATGGTCTGGTCCCCGTGACGAGCACCGGTGGCCTCTCCCGCGGAGTCACCTAGTGCAG”, the binding signal was 3450 fluorescence intensity (a.u.).

Turning to “AGCGACAACCTTGGCAGCCCAAGTGTTGTTGCTCTGTGTGCGGAGTCACCTAGTGCAG”, the binding signal is 27700 fluorescence intensity (a.u.).

On to “AAAGCTGAAACCCTCCTCACTTCCACGCCTCTCTTTCCTTCGGAGTCACCTAGTGCAG”, for which the binding signal is 3210 fluorescence intensity (a.u.).

“AGTTAAATTTTAACTCATGGTGACGTGGACGAAACTCTGACGGAGTCACCTAGTGCAG”: the binding signal is 25000 fluorescence intensity (a.u.).

Consider “AGATCGACCAATGATACACACACAGCATATGAATCCTTTCCGGAGTCACCTAGTGCAG”, for which the binding signal is 41400 fluorescence intensity (a.u.).

Turning to “CTCCAATTTAGGTCGATTCCATTCGAACATTCCTCCTCCACGGAGTCACCTAGTGCAG”, the binding signal was 27600 fluorescence intensity (a.u.).

On to “TCGCCCCAAATCCTCACGCCCGGTCATGAAATTGTATCCACGGAGTCACCTAGTGCAG”, for which the binding signal is 3230 fluorescence intensity (a.u.).

Turning to “GTTGGAGATGCTCTGAGAAACGCATATGTGGATGGTCTTACGGAGTCACCTAGTGCAG”, the binding signal was 48100 fluorescence intensity (a.u.).

With “TAAGCTGCTGCCGACGTGCAGCTCATGGGCGATACCCTTGCGGAGTCACCTAGTGCAG”, the binding signal was 3780 fluorescence intensity (a.u.).

Regarding “TGATGTTGTTGTCCACCTAGGACGAGGACGTGGCATCGTGCGGAGTCACCTAGTGCAG”, the binding signal was 10400 fluorescence intensity (a.u.).

As to “ATATGACTATAAGAAATAGATGAAGAGAGTACGTCATTCTCGGAGTCACCTAGTGCAG”, the binding signal was 5000 fluorescence intensity (a.u.).

Regarding “ACTTCTATAGAGGAGCACACGCATGACCCCACAACATCTTCGGAGTCACCTAGTGCAG”, the binding signal is 4380 fluorescence intensity (a.u.).

Turning to “GCTGTGCAGTACCAAATCGTGACCGTTGATCAGGTCTCATCGGAGTCACCTAGTGCAG”, the binding signal is 3380 fluorescence intensity (a.u.).

As to “GCAAGATGATACGGGAGGAATCGGGAGCAGAAGCCGTGGGCGGAGTCACCTAGTGCAG”, the binding signal was 3250 fluorescence intensity (a.u.).

These data come from publication PMC7819943, “Rice protein-binding microarrays: a tool to detect cis-acting elements near promoter regions in rice”.
